{"source": "PubChem BioAssay AID1159584 (Peter MacCallum Cancer Centre, 2016)", "purpose": "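Genes whose loss is lethal only together with E-cadherin loss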 (primary screen)", "cells": "human MCF10A breast epithelial cells, parental and CDH1-null", "reagents": "siRNA against human genes", "measurement": "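Cell viability by CellTiter-Glo ATP luminescence, each line scaled to the mean of mock wells across plates, then CDH1-null over parental ratio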", "direction": "CDH1-null / parental viability ratio: higher = CDH1-null cells survive relatively better than parental", "note": "In all, the deposit lists about 18,000 reagents; below is a part drawn at random. Further read-outs or replicates are left out here. Not given: the amount of reagent, the time to read-out."}
{"target": "TERB2", "CDH1-null / parental viability ratio": 0.93}
{"target": "FGFBP3", "CDH1-null / parental viability ratio": 0.88}
{"target": "IDH1", "CDH1-null / parental viability ratio": 1.15}
{"target": "STUB1", "CDH1-null / parental viability ratio": 1.03}
{"target": "LSM2", "CDH1-null / parental viability ratio": 1.36}
{"target": "SGMS2", "CDH1-null / parental viability ratio": 0.91}
{"target": "MAGEB6", "CDH1-null / parental viability ratio": 0.85}
{"target": "GSPT1", "CDH1-null / parental viability ratio": 0.95}
{"target": "RARG", "CDH1-null / parental viability ratio": 1.1}
{"target": "CEP95", "CDH1-null / parental viability ratio": 0.9}
{"target": "FBXL4", "CDH1-null / parental viability ratio": 0.86}
{"target": "TRPV4", "CDH1-null / parental viability ratio": 0.93}
{"target": "LMLN", "CDH1-null / parental viability ratio": 1.05}
{"target": "CCDC146", "CDH1-null / parental viability ratio": 0.86}

An excerpt of the results above:
{"target": "TERB2", "CDH1-null / parental viability ratio": 0.93}
{"target": "FGFBP3", "CDH1-null / parental viability ratio": 0.88}
